Assay: cells
Assay type: functional, tissue-based, UKE-1
Settings: Homo sapiens, UKE1, 72 h

IC50: 910 nM
Compound: C[C@@H]1CCN(C(=O)CC#N)C[C@@H]1N(C)c1ncnc2[nH]ccc12 [TOFACITINIB]
